Results deposited as PubChem BioAssay AID1508597 (Cure First, 2020)
This is an unselected part of the about 2,100 reagents, in one setting of the screen. 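Calls flag viability under 80% in either arm, not effects specific to rucaparib; the reference for percent is not stated.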 No sequences are given here. The record does not give: the 100% reference.

Screen: 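Survival screen with siRNA in ovarian cancer cells derived from patients, with or without rucaparib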 (primary screen)
System: human ovarian carcinoma lines grown from tumours: OCI-P5x (papillary serous) and OCI-C5x (clear cell)
Knock-down reagent: siRNA pool against human genes, 1.25 pmol siRNA per well
Timing: 72 h or 96 h, depending on the cell culture
Challenge: rucaparib 20 µM (about IC30) or vehicle, present until read-out
Rucaparib or vehicle: Vehicle
Cell line: OCI-P5x (serous)
Read-out: 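Luminescent ATP-based viability assay read 72 or 96 h after transfection, depending on culture, given as normalised percent viability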
Reading the numbers: viability, normalised: higher = more viable cells remaining
Call rule: 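Active when normalised viability falls below 80 percent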
Meaning of the calls: active = viability under 80%; inactive = viability 80% or more

{"target gene":"NCOR1 (nuclear receptor corepressor 1)","technical replicate":"1","viability, normalised (%)":41.4,"activity call":"active"}
{"target gene":"NCOR1 (nuclear receptor corepressor 1)","technical replicate":"2","viability, normalised (%)":39,"activity call":"active"}
{"target gene":"NCOR1 (nuclear receptor corepressor 1)","technical replicate":"3","viability, normalised (%)":52.4,"activity call":"active"}
{"target gene":"MLH1 (mutL homolog 1)","technical replicate":"1","viability, normalised (%)":69.2,"activity call":"active"}
{"target gene":"MLH1 (mutL homolog 1)","technical replicate":"2","viability, normalised (%)":57.2,"activity call":"active"}
{"target gene":"MLH1 (mutL homolog 1)","technical replicate":"3","viability, normalised (%)":70,"activity call":"active"}
{"target gene":"DHX34 (DExH-box helicase 34)","technical replicate":"1","viability, normalised (%)":57.4,"activity call":"active"}
{"target gene":"DHX34 (DExH-box helicase 34)","technical replicate":"2","viability, normalised (%)":53,"activity call":"active"}
{"target gene":"DHX34 (DExH-box helicase 34)","technical replicate":"3","viability, normalised (%)":56.1,"activity call":"active"}
{"target gene":"NEK8 (NIMA related kinase 8)","technical replicate":"1","viability, normalised (%)":77.6,"activity call":"active"}
{"target gene":"NEK8 (NIMA related kinase 8)","technical replicate":"2","viability, normalised (%)":75.2,"activity call":"active"}
{"target gene":"NEK8 (NIMA related kinase 8)","technical replicate":"3","viability, normalised (%)":81.1,"activity call":"inactive"}
{"target gene":"GPX1 (glutathione peroxidase 1)","technical replicate":"1","viability, normalised (%)":53.5,"activity call":"active"}
{"target gene":"GPX1 (glutathione peroxidase 1)","technical replicate":"2","viability, normalised (%)":63,"activity call":"active"}
{"target gene":"GPX1 (glutathione peroxidase 1)","technical replicate":"3","viability, normalised (%)":53.5,"activity call":"active"}
{"target gene":"POLR2E (RNA polymerase II, I and III subunit E)","technical replicate":"1","viability, normalised (%)":68,"activity call":"active"}
{"target gene":"POLR2E (RNA polymerase II, I and III subunit E)","technical replicate":"2","viability, normalised (%)":50.2,"activity call":"active"}
{"target gene":"POLR2E (RNA polymerase II, I and III subunit E)","technical replicate":"3","viability, normalised (%)":56.1,"activity call":"active"}
{"target gene":"H2BC12 (H2B clustered histone 12)","technical replicate":"1","viability, normalised (%)":71.5,"activity call":"active"}
{"target gene":"H2BC12 (H2B clustered histone 12)","technical replicate":"2","viability, normalised (%)":64.3,"activity call":"active"}
{"target gene":"H2BC12 (H2B clustered histone 12)","technical replicate":"3","viability, normalised (%)":76.9,"activity call":"active"}
{"target gene":"KPNA1 (karyopherin subunit alpha 1)","technical replicate":"1","viability, normalised (%)":99.4,"activity call":"inactive"}
{"target gene":"KPNA1 (karyopherin subunit alpha 1)","technical replicate":"2","viability, normalised (%)":91.7,"activity call":"inactive"}
{"target gene":"KPNA1 (karyopherin subunit alpha 1)","technical replicate":"3","viability, normalised (%)":61.1,"activity call":"active"}
{"target gene":"ERCC6L (ERCC excision repair 6 like DNA helicase)","technical replicate":"1","viability, normalised (%)":83.4,"activity call":"inactive"}
{"target gene":"ERCC6L (ERCC excision repair 6 like DNA helicase)","technical replicate":"2","viability, normalised (%)":86.9,"activity call":"inactive"}
{"target gene":"ERCC6L (ERCC excision repair 6 like DNA helicase)","technical replicate":"3","viability, normalised (%)":78,"activity call":"active"}
{"target gene":"HPS1 (HPS1 biogenesis of lysosomal organelles complex 3 subunit 1)","technical replicate":"1","viability, normalised (%)":53.3,"activity call":"active"}
{"target gene":"HPS1 (HPS1 biogenesis of lysosomal organelles complex 3 subunit 1)","technical replicate":"2","viability, normalised (%)":56.8,"activity call":"active"}
{"target gene":"HPS1 (HPS1 biogenesis of lysosomal organelles complex 3 subunit 1)","technical replicate":"3","viability, normalised (%)":58.6,"activity call":"active"}
{"target gene":"PKD2L2","technical replicate":"1","viability, normalised (%)":66.8,"activity call":"active"}
{"target gene":"PKD2L2","technical replicate":"2","viability, normalised (%)":71.6,"activity call":"active"}
{"target gene":"PKD2L2","technical replicate":"3","viability, normalised (%)":71.5,"activity call":"active"}

A few values from above.
For “activity call”, KPNA1 (karyopherin subunit alpha 1), technical replicate 3 reads active
Entry of HPS1 (HPS1 biogenesis of lysosomal organelles complex 3 subunit 1), technical replicate 3 in “activity call”: active
Result of GPX1 (glutathione peroxidase 1), technical replicate 3 under “activity call”: active
Under “viability, normalised (%)”, POLR2E (RNA polymerase II, I and III subunit E), technical replicate 3 is entered as 56.1
